PMC6859486
Results are given in words; binding and its absence hold for the method and conditions named. Binding seen in cells or lysates may run through a third protein. Some binding calls cover weakened binding; strength is not graded here.

By UniProt entry, the sequences of proteins in these tests, tags left out. Residues count along the entry.
UniProt Q8R035, residues 30-206: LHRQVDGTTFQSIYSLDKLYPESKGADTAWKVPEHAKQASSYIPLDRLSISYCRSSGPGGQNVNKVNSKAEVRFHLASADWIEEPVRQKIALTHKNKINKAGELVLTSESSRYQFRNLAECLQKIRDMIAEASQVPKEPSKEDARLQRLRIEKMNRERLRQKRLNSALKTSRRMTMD

Biological target: mL62-FLAG (mouse) (UniProt Q8R035)
Assay: co-sedimentation; 10%-30% sucrose density gradient of digitonin lysates of liver, kidney and heart mitochondria of MitoRibo-Tag mice; 10 mM Tris-HCl pH 7.5, 100 mM KCl, 20 mM MgCl2; fractions analysed by western blot

binding | Molecule
binds | bS16m (from UniProt Q9CPX7 35-135)
binds | mL37 (protein, UniProt Q921S7 30-423) AYEWGVRSTRKPEPRPLDRVYEIPGLEPITYEGKKHFVPWLARPIFPPWERGWNDPRFHRAAPIHEQTLYKEEPCYIFHQRCRLLEGMKQALWLTKTKLIEGLPKKVLSLVDDPANHIENQEQRVLDIISHARLWHSTEDIPKRETYCPLIVDSLIQLCKSQILKHPSLARRTSAQNCTLATTWNRESLLLQVRGTSSTILSAKDPLPVIASREEVEATRSHVLETFYPISPTIDLQECHVYEVKDDTGFQEGYPYPHPHTLYFLEKANLRPQRFLPEQLRAKMLLFAFANALAQARLLYGNTAKVLEQPIVVQSVGTDGRVFQFLVLQLNTTDLASSEGVKNLVWTDSDQLLYRHFWCRPVIKKKVVVEPVGPVDFQPETFRKFLALYLHGVV
